The list shows a part of the results.

Among the data in paper PMC7819943, “Rice protein-binding microarrays: a tool to detect cis-acting elements near promoter regions in rice” are binding signal values, retold here.

The test deals with T1, OsSMF1 (Oryza sativa, UniProt Q6ZLB0 1-436).
T1 sequence: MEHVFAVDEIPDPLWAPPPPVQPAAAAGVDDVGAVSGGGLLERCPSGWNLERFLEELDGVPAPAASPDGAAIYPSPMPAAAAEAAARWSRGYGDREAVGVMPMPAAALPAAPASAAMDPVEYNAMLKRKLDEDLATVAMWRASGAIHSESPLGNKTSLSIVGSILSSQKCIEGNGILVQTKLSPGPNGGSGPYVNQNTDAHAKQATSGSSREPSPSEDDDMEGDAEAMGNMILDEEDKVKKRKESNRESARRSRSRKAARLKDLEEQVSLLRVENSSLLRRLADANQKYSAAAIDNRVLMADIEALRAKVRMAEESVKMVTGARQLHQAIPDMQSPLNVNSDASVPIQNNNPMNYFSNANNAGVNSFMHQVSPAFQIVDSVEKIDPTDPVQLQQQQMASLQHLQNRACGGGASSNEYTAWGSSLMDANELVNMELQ
The experiment in a line: protein-binding microarray (RPBM); PBS, 2% BSA, 51.3 ng/ul salmon testes DNA, 50 uM zinc acetate, 200 nM TF, 25 C, 1 h; high values mean tight binding. The note with it: protein: recombinant; tags: N-terminal polyhistidine and DsRed monomer fusion (pET32a); chain copies: 2; label: CyDye5-dUTP incorporated in the synthesized complementary strand; 3' TTTTT single-stranded linker to array surface; dsDNA, one strand shown. The procedure, abridged:
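The binding signal is fluorescence intensity per feature, in arbitrary units, read on an Axon 4000B scanner. Polyhistidine- and DsRed-tagged transcription factors (N-terminal fusions) from E. coli BL21-CodonPlus were purified on Ni–NTA and applied at 200 nM for 1 h at 25 °C to a double-stranded, BSA-blocked custom Agilent array in buffer with 50 µM zinc acetate.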
For the sequence “TGCCATTTCTAAAGCTCAGACGCTATTTTGAATCCCACAACGGAGTCACCTAGTGCAG”, the binding signal was 31200 fluorescence intensity (a.u.).

For “AGCGTACGTGTGGTTTGCGACGTGGTGTGCGTGGGCGGTGCGGAGTCACCTAGTGCAG”, the binding signal was 4450 fluorescence intensity (a.u.). As for “CAACAAATTTAAATTTATAGACGTCACCATACTGAAGGCGCGGAGTCACCTAGTGCAG”, the binding signal was 5460 fluorescence intensity (a.u.). In the case of “GCCGCCAGGGCGATCGACACGCGGTTCAGCAGCCGCCGGACGGAGTCACCTAGTGCAG” it was 3170 fluorescence intensity (a.u.); in that of “ATATACTTGTACTCCAGTACTGTAGCTGGTAGCAGTCCAACGGAGTCACCTAGTGCAG”, 16500 fluorescence intensity (a.u.); in that of “AATCCTACAGCTACGCCTACGACGACGCCACCTCCACCTTCGGAGTCACCTAGTGCAG”, 4110 fluorescence intensity (a.u.). The same measure for “CAGTGCCAGGCTGCCAGCCACGCCCTCCCAGCATCTCCTGCGGAGTCACCTAGTGCAG”: 4400 fluorescence intensity (a.u.).

Turning to “GTCGCCACCACCACTATATATATGTGCATGCCGGCCGGCGCGGAGTCACCTAGTGCAG”, the binding signal was 3760 fluorescence intensity (a.u.). The same measure for “GCTAAACAACACAGAGCTGAGGGTTACGTATTACGCGCGTCGGAGTCACCTAGTGCAG”: 3630 fluorescence intensity (a.u.). In the case of “TTGTCGATTGACTTGTGGGGTCTACGTGGGACTCAACCGCCGGAGTCACCTAGTGCAG” it was 5290 fluorescence intensity (a.u.). In the case of “TAAAAGCCGTGGGATCGTTGGAGCGCCACGTCAGCAATTTCGGAGTCACCTAGTGCAG” it was 32300 fluorescence intensity (a.u.); in that of “GAGTCGTGTTTGGTTGGTATGAAGATGTGTGATAAGGGCACGGAGTCACCTAGTGCAG”, 21800 fluorescence intensity (a.u.); in that of “GACCATTGCCACCGCCTACGGTCCCGCGGGGATTTGGCCACGGAGTCACCTAGTGCAG”, 3980 fluorescence intensity (a.u.). As to “ATTCCGAGCTGACGCCGCCGTGCCGTCGTCGACCAACTCTCGGAGTCACCTAGTGCAG”, the binding signal is 4260 fluorescence intensity (a.u.).

As for “CTAGAACTACACGTCCTGAGATATTTGATGACCTCATGTGCGGAGTCACCTAGTGCAG”, the binding signal was 4280 fluorescence intensity (a.u.). In the case of “CACCCACCCGGAAGCCACTGATTCACGCAGCCACAAGCTGCGGAGTCACCTAGTGCAG”, the binding signal is 3980 fluorescence intensity (a.u.). In the case of “AAGAGGGGAACAGAGAAGATGACGTGTCATACTGACATTTCGGAGTCACCTAGTGCAG” it was 15200 fluorescence intensity (a.u.); in that of “AAACCGTGGCAGTGGTTAGTTCCCTTCAAACTTACGGAAACGGAGTCACCTAGTGCAG”, 30500 fluorescence intensity (a.u.); in that of “CGCGACCGCGACGTCGTCATCTAACGCGGACGCCCATCTCCGGAGTCACCTAGTGCAG”, 5270 fluorescence intensity (a.u.). The same measure for “GCCGCCACATCGATCTACCTACGCATGCGTTTCCTCCTCCCGGAGTCACCTAGTGCAG”: 4560 fluorescence intensity (a.u.). In the case of “GTGATTGTGTCATTTCTAGTACTAATAAACTACTCCTTCCCGGAGTCACCTAGTGCAG” it was 3650 fluorescence intensity (a.u.). For “TTTTCCGGATCGAATTGCCACGTAAGCGCCACGTCAATGACGGAGTCACCTAGTGCAG”, the binding signal is 48300 fluorescence intensity (a.u.). On to “CCACAAACCAAACCAACCCAAGATATCCTGATGAACCAAACGGAGTCACCTAGTGCAG”, for which the binding signal was 35300 fluorescence intensity (a.u.). As for “GCCACCACCGCCCATTCTCACGTCGGACGACGAGCTTGTCCGGAGTCACCTAGTGCAG”, the binding signal is 3420 fluorescence intensity (a.u.). With “TCGTCGCCTCGCCTCGCCGGCGCCACCTCCGCATTCCGTTCGGAGTCACCTAGTGCAG”, the binding signal was 4770 fluorescence intensity (a.u.). “GTTAACTTGTCTTGACAGTTGACACGTAGATTTGCGGGCGCGGAGTCACCTAGTGCAG”: the binding signal was 9580 fluorescence intensity (a.u.). In the case of “CTTTGCGACCTCCCAGTCAATCCTACTAGTTAGTATACTTCGGAGTCACCTAGTGCAG” it was 3440 fluorescence intensity (a.u.). In the case of “GTAATTCTGTTGTCATACGGTTTATTGTGTGGTTGCTGAACGGAGTCACCTAGTGCAG”, the binding signal was 3400 fluorescence intensity (a.u.). Take “GTTAAATTGCCACGTAAGCACCACGTCATACCACGTCAGACGGAGTCACCTAGTGCAG”: the binding signal is 51500 fluorescence intensity (a.u.).

As to “TGGCGTGGCGCGGCGCGGCGAGGAAACGTGGACCTCTGCGCGGAGTCACCTAGTGCAG”, the binding signal is 3780 fluorescence intensity (a.u.). In the case of “GCAGGGAGTACACAACGTGCACAGTCAGGTCAACAGCTGGCGGAGTCACCTAGTGCAG” it was 4530 fluorescence intensity (a.u.); in that of “TGCACCGGGTCTACGCCCCAGTAGTAGCAGCCACCTCACCCGGAGTCACCTAGTGCAG”, 4310 fluorescence intensity (a.u.). The same measure for “TGGACCACATGGTTCAAACATGTATCAGCAAGCAAAAGGGCGGAGTCACCTAGTGCAG”: 3760 fluorescence intensity (a.u.). For the sequence “CCTTCCGTTCGACGCGACACGCGAGTCATTGCTGCCACCACGGAGTCACCTAGTGCAG”, the binding signal is 3680 fluorescence intensity (a.u.).

“GATCTGACAGACCTGGAGCTTATGCGTAACCTCGTCAGAACGGAGTCACCTAGTGCAG”: the binding signal is 6640 fluorescence intensity (a.u.). In the case of “TAACAAGGCAAATGCCCCTTAAACAGTCAAACAACCGAGGCGGAGTCACCTAGTGCAG”, the binding signal was 4530 fluorescence intensity (a.u.).

On to “GGTCTGACGCCGCCACCACGCACGTCCTCGATTTCGCAGTCGGAGTCACCTAGTGCAG”, for which the binding signal was 5230 fluorescence intensity (a.u.). With “GGCCTCCTCGCATGGAACGCCGTCGTCTACTCGCTCCCATCGGAGTCACCTAGTGCAG”, the binding signal is 3210 fluorescence intensity (a.u.).

“TTGAATTTTCTGCGATGTGTGGTGACTCAGAATGTTTGCTCGGAGTCACCTAGTGCAG”: the binding signal was 8810 fluorescence intensity (a.u.). The same measure for “GTGTACCTACGCATCCGTCTGGACCACCTGAGCCAAAGCCCGGAGTCACCTAGTGCAG”: 3190 fluorescence intensity (a.u.). The same measure for “AGAATTCGTTTTATTATTGTTCGTGTCACTGTGGCTCACTCGGAGTCACCTAGTGCAG”: 3420 fluorescence intensity (a.u.); for “ATGCGCGCGGGACAGTGTGTGTGATGGGGTGAGCCAATTGCGGAGTCACCTAGTGCAG”: 6960 fluorescence intensity (a.u.).
